Results are given in words; binding and its absence hold for the method and conditions named. Binding seen in cells or lysates may run through a third protein. Some results given as binding are weak or reduced against the parent protein; the word gives no strength. Where a sequence is shown, tags or fusion partners need not be part of it.

Protein sequences, listed by entry. Tags and fused reporters are not part of them.
UniProt Q14145: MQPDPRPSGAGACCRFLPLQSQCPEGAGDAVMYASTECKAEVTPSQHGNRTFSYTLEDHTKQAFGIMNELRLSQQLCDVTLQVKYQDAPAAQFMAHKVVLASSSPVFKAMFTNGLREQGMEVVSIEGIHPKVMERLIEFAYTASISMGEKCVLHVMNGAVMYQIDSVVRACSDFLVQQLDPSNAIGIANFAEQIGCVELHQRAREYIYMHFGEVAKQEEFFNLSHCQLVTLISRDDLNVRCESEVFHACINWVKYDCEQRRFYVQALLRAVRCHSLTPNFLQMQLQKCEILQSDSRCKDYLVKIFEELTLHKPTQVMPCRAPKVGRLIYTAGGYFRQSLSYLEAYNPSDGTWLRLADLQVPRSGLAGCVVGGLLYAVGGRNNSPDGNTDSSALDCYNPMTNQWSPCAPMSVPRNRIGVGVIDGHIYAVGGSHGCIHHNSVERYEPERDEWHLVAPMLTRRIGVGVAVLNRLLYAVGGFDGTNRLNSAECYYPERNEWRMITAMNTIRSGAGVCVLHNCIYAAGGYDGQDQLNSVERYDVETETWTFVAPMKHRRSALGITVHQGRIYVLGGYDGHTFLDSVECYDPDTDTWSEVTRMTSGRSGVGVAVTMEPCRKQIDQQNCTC

The experiment deals with Kelch-like ECH-associated protein 1 (FLAG-Keap1) (UniProt Q14145). In words: co-IP; exogenous Flag-Keap1 with His-MCM3/HA-Nrf2 in 293T treated with or without PQQ; IP lysis buffer (20 mM Tris pH 7.8, 150 mM NaCl, 0.2% NP-40, 10% glycerol), antibodies on Protein A/G agarose, 4°C overnight; immunoblotting.

B1: minichromosome maintenance complex component 3 (His-MCM3) (protein, UniProt P25205 1-808)
chain: MAGTVVLDDVELREAQRDYLDFLDDEEDQGIYQSKVRELISDNQYRLIVNVNDLRRKNEKRANRLLNNAFEELVAFQRALKDFVASIDATYAKQYEEFYVGLEGSFGSKHVSPRTLTSCFLSCVVCVEGIVTKCSLVRPKVVRSVHYCPATKKTIERRYSDLTTLVAFPSSSVYPTKDEENNPLETEYGLSVYKDHQTITIQEMPEKAPAGQLPRSVDVILDDDLVDKAKPGDRVQVVGTYRCLPGKKGGYTSGTFRTVLIACNVKQMSKDAQPSFSAEDIAKIKKFSKTRSKDIFDQLAKSLAPSIHGHDYVKKAILCLLLGGVERDLENGSHIRGDINILLIGDPSVAKSQLLRYVLCTAPRAIPTTGRGSSGVGLTAAVTTDQETGERRLEAGAMVLADRGVVCIDEFDKMSDMDRTAIHEVMEQGRVTIAKAGIHARLNARCSVLAAANPVYGRYDQYKTPMENIGLQDSLLSRFDLLFIMLDQMDPEQDREISDHVLRMHRYRAPGEQDGDAMPLGSAVDILATDDPNFSQEDQQDTQIYEKHDNLLHGTKKKKEKMVSAAFMKKYIHVAKIIKPVLTQESATYIAEEYSRLRSQDSMSSDTARTSPVTARTLETLIRLATAHAKARMSKTVDLQDAEEAVELVQYAYFKKVLEKEKKRKKRSEDESETEDEEEKSQEDQEQKRKRRKTRQPDAKDGDSYDPYDFSDTEEEMPQVHTPKTADSQETKESQKVELSESRLKAFKVALLDVFREAHAQSIGMNRLTESINRDSEEPFSSVEIQAALSKMQDDNQVMVSEGIIFLI
Turning to B1, the binding result is on record as “binds”.

Values taken from article PMC10497824.
